Reference: US5310469A, “Biosensor with a membrane containing biologically active material” (Abbott Laboratories, priority 1991, dated 1994)

Legend:
[1] = Selectivity of amperometric glucose sensor, flow-injection mode (TABLE 4B); conditions: for Relative Response: relative to glucose
[2] = Relative response of sensor stored in pH 7.5 buffer (TABLE 4D)

Compound | Response [1] | Relative Response [1] [%] | other results
OC[C@H]1OC(O)[C@H](O)[C@@H](O)[C@@H]1O (stereo partly shown) [Glucose] | 50.4 nA/mM | – | –
COc1ccccc1O [GA, guaiacol] | – | 4.3 | –
CC(=O)Nc1ccc(O)cc1 [APAP, 4-acetamidophenol] | 1.10 nA/mM | 2.2 | APAP/H202 × 100 ([2]; Day 1 (first line)): 0.032; APAP/H202 × 100 ([2]; Day 1 (second line)): 1.34; APAP/H202 × 100 ([2]; Day 10): 3.07; APAP/H202 × 100 ([2]; Day 16): 3.4; APAP/H202 × 100 ([2]; Day 55): 63
O=C1O[C@H]([C@@H](O)CO)C(O)=C1O [AA, ascorbic acid] | 3.39 nA/mM | 6.7 | –
OO [H2 O2, hydrogen peroxide] | 256 nA/mM | – | –
O=c1[nH]c(=O)c2[nH]c(=O)[nH]c2[nH]1 [Uric Acid] | 1.05 nA/mM | 2.12 | –
O=C(O)c1cc(O)ccc1O [GT, gentisic acid] | 0.15-0.9 nA/mM | 0.3 | –
Nc1ccc(C(=O)O)c(O)c1 [AHB, 4amino-2-hydroxybenzoic acid] | < 0.05 nA/mM | < 0.1 | –
NC(=O)c1ccccc1O [SALA, salicylamide] | – | 6.7 | –
N[C@@H](Cc1ccc(O)c(O)c1)C(=O)O [DOPA, Lbeta-3,4-dihydroxyphenylalanine] | 4.53 nA/mM | 9.0 | –
Oc1ccccc1O [Py, pyrocatechol] | – | 9.2 | –
